No constants are given. Whether binding was seen depends on the method and setting. Binding seen in cells or lysates may run through a third protein. Some results given as binding are weak or reduced against the parent protein; the word gives no strength.

Sequences of proteins named here, by UniProt entry; tags and fusion partners are left off. A change or cut given only in a name is not applied to a line headed by its entry. A line that says so, or that is headed by a name, gives the form on record, which may keep a tag or linker.
UniProt Q92560: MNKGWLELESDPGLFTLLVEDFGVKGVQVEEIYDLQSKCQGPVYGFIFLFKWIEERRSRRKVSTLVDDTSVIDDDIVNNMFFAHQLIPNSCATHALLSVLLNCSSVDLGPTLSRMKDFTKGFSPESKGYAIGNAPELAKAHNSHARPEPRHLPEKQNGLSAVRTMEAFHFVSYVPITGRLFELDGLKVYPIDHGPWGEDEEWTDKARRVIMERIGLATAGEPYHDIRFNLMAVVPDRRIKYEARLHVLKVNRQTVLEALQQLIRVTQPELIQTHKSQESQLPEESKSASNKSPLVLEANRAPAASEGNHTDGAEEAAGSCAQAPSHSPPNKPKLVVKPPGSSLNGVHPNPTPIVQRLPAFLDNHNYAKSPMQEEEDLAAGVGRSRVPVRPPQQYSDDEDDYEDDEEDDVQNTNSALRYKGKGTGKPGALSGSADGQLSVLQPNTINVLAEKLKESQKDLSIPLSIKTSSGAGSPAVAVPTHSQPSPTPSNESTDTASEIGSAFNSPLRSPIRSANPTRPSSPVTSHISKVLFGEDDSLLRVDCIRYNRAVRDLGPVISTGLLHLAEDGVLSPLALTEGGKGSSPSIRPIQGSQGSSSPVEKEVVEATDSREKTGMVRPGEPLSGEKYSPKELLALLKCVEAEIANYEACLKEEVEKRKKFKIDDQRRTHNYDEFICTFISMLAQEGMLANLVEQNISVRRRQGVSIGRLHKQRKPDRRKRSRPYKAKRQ
Flag-BAP1 ΔASXL (removal of amino acids 666 to 669) (Q92560, form named): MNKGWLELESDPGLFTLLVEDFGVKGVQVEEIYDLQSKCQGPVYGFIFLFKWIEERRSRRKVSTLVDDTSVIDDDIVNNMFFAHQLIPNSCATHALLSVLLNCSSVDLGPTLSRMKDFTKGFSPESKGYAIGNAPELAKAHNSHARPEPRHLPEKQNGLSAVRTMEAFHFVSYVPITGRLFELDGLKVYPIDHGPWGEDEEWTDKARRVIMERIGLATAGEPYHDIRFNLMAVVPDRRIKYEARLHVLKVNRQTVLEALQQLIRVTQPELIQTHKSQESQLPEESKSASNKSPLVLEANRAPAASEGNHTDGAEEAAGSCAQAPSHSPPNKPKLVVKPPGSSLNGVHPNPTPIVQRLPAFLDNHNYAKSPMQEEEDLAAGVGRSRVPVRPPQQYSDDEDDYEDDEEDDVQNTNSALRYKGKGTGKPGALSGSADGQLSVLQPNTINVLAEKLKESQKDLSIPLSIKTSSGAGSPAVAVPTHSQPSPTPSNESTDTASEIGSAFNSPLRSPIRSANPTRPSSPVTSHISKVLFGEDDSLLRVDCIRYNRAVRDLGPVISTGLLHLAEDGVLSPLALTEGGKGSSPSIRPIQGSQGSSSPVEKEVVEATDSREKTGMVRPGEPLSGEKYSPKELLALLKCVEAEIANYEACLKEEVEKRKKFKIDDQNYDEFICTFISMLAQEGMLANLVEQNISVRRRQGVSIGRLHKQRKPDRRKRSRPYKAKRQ
UniProt Q8IXJ9: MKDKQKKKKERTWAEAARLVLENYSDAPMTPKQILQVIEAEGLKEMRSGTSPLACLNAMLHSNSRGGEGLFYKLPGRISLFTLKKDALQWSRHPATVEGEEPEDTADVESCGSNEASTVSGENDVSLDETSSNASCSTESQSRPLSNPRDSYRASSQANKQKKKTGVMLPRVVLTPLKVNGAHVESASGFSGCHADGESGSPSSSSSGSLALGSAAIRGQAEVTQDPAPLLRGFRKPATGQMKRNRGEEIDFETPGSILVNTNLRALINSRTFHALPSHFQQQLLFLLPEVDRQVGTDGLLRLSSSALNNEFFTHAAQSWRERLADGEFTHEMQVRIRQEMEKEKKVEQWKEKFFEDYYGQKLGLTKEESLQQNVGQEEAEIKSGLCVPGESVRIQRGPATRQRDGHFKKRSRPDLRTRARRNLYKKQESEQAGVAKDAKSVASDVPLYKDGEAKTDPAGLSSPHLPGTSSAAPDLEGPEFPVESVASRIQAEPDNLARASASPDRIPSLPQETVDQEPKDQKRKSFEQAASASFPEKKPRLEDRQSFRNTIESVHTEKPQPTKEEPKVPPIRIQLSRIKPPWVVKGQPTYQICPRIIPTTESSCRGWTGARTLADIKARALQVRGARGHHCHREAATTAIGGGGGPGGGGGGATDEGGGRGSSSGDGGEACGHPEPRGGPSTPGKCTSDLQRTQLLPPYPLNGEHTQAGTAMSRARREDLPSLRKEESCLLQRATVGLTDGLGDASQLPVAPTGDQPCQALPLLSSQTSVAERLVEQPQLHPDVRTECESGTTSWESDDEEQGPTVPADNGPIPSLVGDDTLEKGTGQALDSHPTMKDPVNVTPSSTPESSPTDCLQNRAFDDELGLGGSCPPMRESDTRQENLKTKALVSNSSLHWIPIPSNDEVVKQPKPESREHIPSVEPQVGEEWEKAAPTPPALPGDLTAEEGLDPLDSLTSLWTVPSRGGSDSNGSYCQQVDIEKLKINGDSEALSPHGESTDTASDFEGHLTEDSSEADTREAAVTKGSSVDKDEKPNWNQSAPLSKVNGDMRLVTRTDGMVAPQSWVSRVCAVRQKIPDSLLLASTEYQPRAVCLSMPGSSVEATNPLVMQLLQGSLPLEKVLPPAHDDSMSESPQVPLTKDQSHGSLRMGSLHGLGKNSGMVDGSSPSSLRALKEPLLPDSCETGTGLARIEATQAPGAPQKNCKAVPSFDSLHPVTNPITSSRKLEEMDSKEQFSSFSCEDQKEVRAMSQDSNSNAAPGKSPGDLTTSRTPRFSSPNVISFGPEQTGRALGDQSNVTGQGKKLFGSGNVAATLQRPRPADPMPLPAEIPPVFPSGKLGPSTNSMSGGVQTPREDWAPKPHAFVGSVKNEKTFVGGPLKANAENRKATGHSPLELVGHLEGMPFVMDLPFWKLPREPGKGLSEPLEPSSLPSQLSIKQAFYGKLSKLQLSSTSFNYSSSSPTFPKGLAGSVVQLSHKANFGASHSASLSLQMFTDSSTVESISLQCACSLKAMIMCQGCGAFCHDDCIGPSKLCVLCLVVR

The target in test [1] is Flag-BAP1 (wild-type BRCA1-associated protein 1) (UniProt Q92560). In words: co-IP; cell lysates incubated with Anti-Flag/Myc Magnetic Beads overnight at 4 °C, beads washed three times with lysis buffer, eluate analysed by SDS-PAGE and Western blotting; BAP1 pulled down.
Test [2] has as its target Flag-BAP1 ΔASXL (removal of amino acids 666 to 669) (UniProt Q92560). The test is described as above.

Turning to “ASXL1 (additional sex combs-like protein 1) (from UniProt Q8IXJ9 1-1541)”, the binding entry is reported as “binds” in test [1] and “no binding” in test [2].

B1: lysine-specific demethylase 1B (KDM1B) (protein, UniProt Q8NB78 1-822)
chain: MATPRGRTKKKASFDHSPDSLPLRSSGRQAKKKATETTDEDEDGGSEKKYRKCEKAGCTATCPVCFASASERCAKNGYTSRWYHLSCGEHFCNECFDHYYRSHKDGYDKYTTWKKIWTSNGKTEPSPKAFMADQQLPYWVQCTKPECRKWRQLTKEIQLTPQIAKTYRCGMKPNTAIKPETSDHCSLPEDLRVLEVSNHWWYSMLILPPLLKDSVAAPLLSAYYPDCVGMSPSCTSTNRAAATGNASPGKLEHSKAALSVHVPGMNRYFQPFYQPNECGKALCVRPDVMELDELYEFPEYSRDPTMYLALRNLILALWYTNCKEALTPQKCIPHIIVRGLVRIRCVQEVERILYFMTRKGLINTGVLSVGADQYLLPKDYHNKSVIIIGAGPAGLAAARQLHNFGIKVTVLEAKDRIGGRVWDDKSFKGVTVGRGAQIVNGCINNPVALMCEQLGISMHKFGERCDLIQEGGRITDPTIDKRMDFHFNALLDVVSEWRKDKTQLQDVPLGEKIEEIYKAFIKESGIQFSELEGQVLQFHLSNLEYACGSNLHQVSARSWDHNEFFAQFAGDHTLLTPGYSVIIEKLAEGLDIQLKSPVQCIDYSGDEVQVTTTDGTGYSAQKVLVTVPLALLQKGAIQFNPPLSEKKMKAINSLGAGIIEKIALQFPYRFWDSKVQGADFFGHVPPSASKRGLFAVFYDMDPQKKHSVLMSVIAGEAVASVRTLDDKQVLQQCMATLRELFKEQEVPDPTKYFVTRWSTDPWIQMAYSFVKTGGSGEAYDIIAEDIQGTVFFAGEATNRHFPQTVTGAYLSGVREASKIAAF
Regarding B1, the binding result in test [1] was “binds”; in test [2], “no binding”.

Source of the values: article PMC13246907.
